From patent publication US10525030B2 (priority 2013, dated 2020)

test system: MES test (electrical stimulus through corneal electrodes); set-up: species or system male ICR mice; conditions: mouse, in vivo

Going from `C[C@H](OC(N)=O)[C@@H](O)c1c(Cl)cccc1Cl` [Compound 37, 1-(2,6-dichlorophenyl)-(S)-1-hydroxypropyl-(S)-2-carbamate] to `C[C@@H](OC(N)=O)[C@H](O)c1ccccc1Cl` [Compound 2, 1-(2-chlorophenyl)-(R)-1-hydroxypropyl-(R)-2-carbamate], the “PI(TD50/ED50 in MES)” value rises from 5.1 to 7.3.

Going from `C[C@H](OC(N)=O)[C@H](O)c1ccccc1Cl` [Compound 5, 1-(2-chlorophenyl)-(R)-1-hydroxypropyl-(S)-2-carbamate] to `CC(OC(N)=O)C(O)c1ccccc1Cl` (racemic) [Compound 3, 1-(2-chlorophenyl)-1-hydroxypropyl-2-carbamate], the “PI(TD50/ED50 in MES)” value rises from 3.3 to 12.0.
